{
  "source": "the supplement of paper PMC8728848",
  "binders": {"B1": {"name": "BIp1-His (Cryptococcus neoformans) (protein)", "chain": "MFTKIFVALFAATAVLSAPVESAEKRITHTGRATFYSPSVGIGACGWQNTDEELVVALNAPQYALNADHNCGQSVRITNEQNGNQEIAKVVDLCPGCNDGDLDMSPALFGALNNNDFDQGVFPISWNFLPRDDTSSSN"}},
  "experiment_in_all_cases": "glycan array binding signal (z-score within array); higher = stronger binding",
  "details_in_all_cases": "glycan notation: IUPAC condensed, linker removed",
  "key": {"Fuc(a1-2)Gal": {"biological_target": "Fuc(a1-2)Gal", "method_in_brief": "(§1)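 Glycan array data came from 3228 arrays in the Consortium for Functional Glycomics database, and only arrays with an available protein sequence were kept. Glycan names were put into IUPAC-condensed notation, and columns mapping to the same glycan were averaged. The binding signal is a within-array Z-score, averaged across arrays of one protein sequence run at different concentrations or buffers and across linkers. A negative Z-score can be read as non-binding.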"}, "Fuc(a1-2)Gal(b1-3)GalNAc": {"biological_target": "Fuc(a1-2)Gal(b1-3)GalNAc", "method_in_brief": "as §1"}, "[1]": {"biological_target": "Fuc(a1-2)Gal(b1-3)GalNAc(a1-3)[Fuc(a1-2)]Gal(b1-4)Glc", "method_in_brief": "as §1"}, "[2]": {"biological_target": "Fuc(a1-2)Gal(b1-3)GalNAc(a1-3)[Fuc(a1-2)]Gal(b1-4)GlcNAc", "method_in_brief": "as §1"}, "[3]": {"biological_target": "Fuc(a1-2)Gal(b1-3)GalNAc(b1-3)Gal", "method_in_brief": "as §1"}, "[4]": {"biological_target": "Fuc(a1-2)Gal(b1-3)GalNAc(b1-3)Gal(a1-4)Gal(b1-4)Glc", "method_in_brief": "as §1"}, "[5]": {"biological_target": "Fuc(a1-2)Gal(b1-3)GalNAc(b1-4)[Neu5Ac(a2-3)]Gal(b1-4)Glc", "method_in_brief": "as §1"}, "Fuc(a1-2)Gal(b1-3)GlcNAc": {"biological_target": "Fuc(a1-2)Gal(b1-3)GlcNAc", "method_in_brief": "as §1"}, "[6]": {"biological_target": "Fuc(a1-2)Gal(b1-3)GlcNAc(b1-2)Man(a1-3)[Fuc(a1-2)Gal(b1-3)GlcNAc(b1-2)Man(a1-6)]Man(b1-4)GlcNAc(b1-4)GlcNAc", "method_in_brief": "as §1"}, "[7]": {"biological_target": "Fuc(a1-2)Gal(b1-3)GlcNAc(b1-2)Man(a1-3)[Fuc(a1-2)Gal(b1-3)GlcNAc(b1-2)Man(a1-6)]Man(b1-4)GlcNAc(b1-4)[Fuc(a1-6)]GlcNAc", "method_in_brief": "as §1"}, "[8]": {"biological_target": "Fuc(a1-2)Gal(b1-3)GlcNAc(b1-3)Gal(b1-4)Glc", "method_in_brief": "as §1"}, "[9]": {"biological_target": "Fuc(a1-2)Gal(b1-3)GlcNAc(b1-3)GalNAc", "method_in_brief": "as §1"}, "[10]": {"biological_target": "Fuc(a1-2)Gal(b1-3)GlcNAc(b1-3)[Fuc(a1-2)Gal(b1-3)GlcNAc(b1-6)]GalNAc", "method_in_brief": "as §1"}, "[11]": {"biological_target": "Fuc(a1-2)Gal(b1-3)GlcNAc(b1-3)[Gal(b1-4)GlcNAc(b1-6)]Gal(b1-4)Glc", "method_in_brief": "as §1"}, "[12]": {"biological_target": "Fuc(a1-2)Gal(b1-3)GlcNAc(b1-3)[Neu5Ac(a2-6)Gal(b1-4)GlcNAc(b1-6)]Gal(b1-4)Glc", "method_in_brief": "as §1"}, "[13]": {"biological_target": "Fuc(a1-2)Gal(b1-3)GlcNAc6S", "method_in_brief": "as §1"}, "[14]": {"biological_target": "Fuc(a1-2)Gal(b1-3)[Fuc(a1-4)]GlcNAc", "method_in_brief": "as §1"}, "[15]": {"biological_target": "Fuc(a1-2)Gal(b1-3)[Fuc(a1-4)]GlcNAc(b1-2)Man(a1-3)[Fuc(a1-2)Gal(b1-3)[Fuc(a1-4)]GlcNAc(b1-2)Man(a1-3)]Man(b1-4)GlcNAc(b1-4)GlcNAc", "method_in_brief": "as §1"}, "[16]": {"biological_target": "Fuc(a1-2)Gal(b1-3)[Fuc(a1-4)]GlcNAc(b1-2)Man(a1-3)[Fuc(a1-2)Gal(b1-3)[Fuc(a1-4)]GlcNAc(b1-2)Man(a1-6)]Man(b1-4)GlcNAc(b1-4)[Fuc(a1-6)]GlcNAc(b1-4)[Fuc(a1-6)]GlcNAc", "method_in_brief": "as §1"}, "[17]": {"biological_target": "Fuc(a1-2)Gal(b1-3)[Fuc(a1-4)]GlcNAc(b1-3)[Fuc(a1-3)[Gal(b1-4)]GlcNAc(b1-6)]Gal(b1-4)Glc", "method_in_brief": "as §1"}, "[18]": {"biological_target": "Fuc(a1-2)Gal(b1-3)[Fuc(a1-4)]GlcNAc(b1-3)[Gal(b1-4)GlcNAc(b1-6)]Gal(b1-4)Glc", "method_in_brief": "as §1"}, "[19]": {"biological_target": "Fuc(a1-2)Gal(b1-4)Fuc(a1-3)]GlcNAc(b1-2)Man(a1-3)[Fuc(a1-2)Gal(b1-4)[Fuc(a1-3)]GlcNAc(b1-2)Man(a1-6)]Man(b1-4)GlcNAc(b1-4)GlcNAc", "method_in_brief": "as §1"}, "Fuc(a1-2)Gal(b1-4)Glc": {"biological_target": "Fuc(a1-2)Gal(b1-4)Glc", "method_in_brief": "as §1"}, "Fuc(a1-2)Gal(b1-4)Glc6S": {"biological_target": "Fuc(a1-2)Gal(b1-4)Glc6S", "method_in_brief": "as §1"}, "Fuc(a1-2)Gal(b1-4)GlcNAc": {"biological_target": "Fuc(a1-2)Gal(b1-4)GlcNAc", "method_in_brief": "as §1"}, "[20]": {"biological_target": "Fuc(a1-2)Gal(b1-4)GlcNAc(b1-2)Man", "method_in_brief": "as §1"}, "[21]": {"biological_target": "Fuc(a1-2)Gal(b1-4)GlcNAc(b1-2)Man(a1-3)[Fuc(a1-2)Gal(b1-4)GlcNAc(b1-2)Man(a1-6)]Man(b1-4)GlcNAc(b1-4)GlcNAc", "method_in_brief": "as §1"}, "[22]": {"biological_target": "Fuc(a1-2)Gal(b1-4)GlcNAc(b1-2)Man(a1-3)[Fuc(a1-2)Gal(b1-4)GlcNAc(b1-2)Man(a1-6)]Man(b1-4)GlcNAc(b1-4)[Fuc(a1-6)]GlcNAc", "method_in_brief": "as §1"}, "[23]": {"biological_target": "Fuc(a1-2)Gal(b1-4)GlcNAc(b1-2)[Fuc(a1-2)Gal(b1-4)GlcNAc(b1-4)]Man(a1-3)[Fuc(a1-2)Gal(b1-4)GlcNAc(b1-2)Man(a1-6)]Man(b1-4)GlcNAc(b1-4)GlcNAc", "method_in_brief": "as §1"}, "[24]": {"biological_target": "Fuc(a1-2)Gal(b1-4)GlcNAc(b1-3)Gal(b1-4)GlcNAc", "method_in_brief": "as §1"}},
  "note": "This is one part of the list.",
  "data": [
    {"binder": "B1", "values": [
      {"measurement": "glycan array binding signal (z-score)", "setting": "Fuc(a1-2)Gal", "result": 0.588},
      {"measurement": "glycan array binding signal (z-score)", "setting": "Fuc(a1-2)Gal(b1-3)GalNAc", "result": -0.387},
      {"measurement": "glycan array binding signal (z-score)", "setting": "[1]", "result": 0.963},
      {"measurement": "glycan array binding signal (z-score)", "setting": "[2]", "result": -1.35},
      {"measurement": "glycan array binding signal (z-score)", "setting": "[3]", "result": 0.007},
      {"measurement": "glycan array binding signal (z-score)", "setting": "[4]", "result": 0.19},
      {"measurement": "glycan array binding signal (z-score)", "setting": "[5]", "result": 0.213},
      {"measurement": "glycan array binding signal (z-score)", "setting": "Fuc(a1-2)Gal(b1-3)GlcNAc", "result": -0.134},
      {"measurement": "glycan array binding signal (z-score)", "setting": "[6]", "result": 0.268},
      {"measurement": "glycan array binding signal (z-score)", "setting": "[7]", "result": -0.097},
      {"measurement": "glycan array binding signal (z-score)", "setting": "[8]", "result": -0.935},
      {"measurement": "glycan array binding signal (z-score)", "setting": "[9]", "result": -0.078},
      {"measurement": "glycan array binding signal (z-score)", "setting": "[10]", "result": -0.401},
      {"measurement": "glycan array binding signal (z-score)", "setting": "[11]", "result": -0.39},
      {"measurement": "glycan array binding signal (z-score)", "setting": "[12]", "result": -0.593},
      {"measurement": "glycan array binding signal (z-score)", "setting": "[13]", "result": -0.724},
      {"measurement": "glycan array binding signal (z-score)", "setting": "[14]", "result": -0.006},
      {"measurement": "glycan array binding signal (z-score)", "setting": "[15]", "result": 0.268},
      {"measurement": "glycan array binding signal (z-score)", "setting": "[16]", "result": 0.269},
      {"measurement": "glycan array binding signal (z-score)", "setting": "[17]", "result": -0.86},
      {"measurement": "glycan array binding signal (z-score)", "setting": "[18]", "result": 0.718},
      {"measurement": "glycan array binding signal (z-score)", "setting": "[19]", "result": 1.55},
      {"measurement": "glycan array binding signal (z-score)", "setting": "Fuc(a1-2)Gal(b1-4)Glc", "result": -0.355},
      {"measurement": "glycan array binding signal (z-score)", "setting": "Fuc(a1-2)Gal(b1-4)Glc6S", "result": 0.441},
      {"measurement": "glycan array binding signal (z-score)", "setting": "Fuc(a1-2)Gal(b1-4)GlcNAc", "result": -0.913},
      {"measurement": "glycan array binding signal (z-score)", "setting": "[20]", "result": -0.202},
      {"measurement": "glycan array binding signal (z-score)", "setting": "[21]", "result": -0.761},
      {"measurement": "glycan array binding signal (z-score)", "setting": "[22]", "result": -0.228},
      {"measurement": "glycan array binding signal (z-score)", "setting": "[23]", "result": 1.58},
      {"measurement": "glycan array binding signal (z-score)", "setting": "[24]", "result": -0.893}
    ]}
  ]
}
